Test results as given in PubChem BioAssay AID493014 (National Center for Advancing Translational Sciences (NCATS), 2011).
Screen size: about 340,000 compounds; about 170 (0.05%) were called active. Inconclusive results, whose numbers are uncertain, are shown with a selection of clear calls. The call rests on the fitted dose curve; in most records, active means well fitted inhibition curve with a large enough effect in the signal ratio, with a control signal flat (not every such curve was filed as active); inconclusive means small, poorly fitted or top-dose-only effect, or effect the other way, or a change in a side signal; inactive means flat fitted curve, though single readings scatter; the % refers to the signal ratio. Where the call is inconclusive, the potency comes from a doubtful curve fit.

experiment: qHTS Assay to Find Inhibitors of Chronic Active B-Cell Receptor Signaling; conditions: ABC-DLBCL IkBa-CBG/CBR reporter, luminescence ratio (green luciferase fused to IkBa over red control in TMD8 lymphoma cells), 4 h; activity change, negative = inhibition: at 46.1 µM (top of the series) unless noted;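 on activity change, negative = inhibition: plate controls were basal doxycycline-induced cells for no effect and cells given 10 µM MG132 for full effect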
Procedure, shortened: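 Cell line TMD8 (human ABC DLBCL), stably expressing tet-inducible CBG68-IkBa fusion and CBR; IMDM/0.5% FBS; cpd up to 46 uM; dox induction, 4 h, 37C/5% CO2; dual luminescence; green/red ratio; MG132 control.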
Potency means the concentration at half of the fitted maximal effect.

SMILES | activity change, negative = inhibition | Potency
O=C(/C=C/c1ccco1)N1CCN(S(=O)(=O)/C=C/c2ccccc2)CC1 | inconclusive: -2.97% | –
CCOc1ccccc1C(=O)Nc1ccccc1O | inconclusive: -3.29% | –
Cc1ccc(C(=O)NCC(c2ccco2)S(=O)(=O)c2cccs2)cc1C (centres undefined) | – | inconclusive: 35.5 µM [falling, single point]
c1ccc(CC2CCCNC2)cc1 (centres undefined) | inconclusive: -2.05% | –
CN1CCN(CCCN2c3ccccc3Sc3ccc(S(=O)(=O)N(C)C)cc32)CC1 | – | inconclusive: 20.6 µM [falling, single point]
Cc1ccc2nc(-c3ccccc3)cc(C(=O)NCC(c3ccco3)N(C)C)c2c1 (centres undefined) | inactive | –
CCOc1ccc(C(=O)NCCc2ccccc2)cc1 | – | inconclusive: 6.51 µM [falling, single point]
Cn1c(-c2ccccc2)c(C#Cc2ccc(N)cc2)c2ccccc21 | inactive | –
CCOc1ccccc1N1C(=O)CN(Cc2ccc(OC)c(OC)c2)C1=S | inconclusive: -13.1% | –
O=C(O)Cc1sc(-c2ccc(Cl)cc2)nc1-c1ccccc1 | inactive | –
CC(C)C(C(=O)NCC1CCCO1)N(C(=O)CNS(=O)(=O)c1ccccc1)c1ccc(F)cc1 (centres undefined) | inactive | –
O=C(CNC(=O)c1cccc(N2C(=O)c3ccccc3C2=O)c1)Nc1ccc(F)c(F)c1 | inconclusive: -2.48% | –
Cn1cc([N+](=O)[O-])c(C(=O)N/N=C\c2c[nH]c3ccccc23)n1 | – | inconclusive: 22.4 µM [falling, single point]
CC(=O)N(Cc1cccnc1)c1cccc(-c2nc3ccccc3s2)c1 | inconclusive: -8.97% | –
CCOc1cc(/C=C2\C(=O)NN(c3ccccc3)C2=O)cc([N+](=O)[O-])c1O | – | inconclusive: 17.8 µM [falling, single point]
COc1ccccc1C(NC(=O)C1CCCCC1)c1c(O)ccc2ccccc12 (centres undefined) | inconclusive: 5.27% | –
CCCOc1ccc(NC(=O)OC2CCN(C)CC2)cc1 | inconclusive: 8.06% | –
O=c1c2ccccc2ccc2ccc(P(=O)(O)O)cc12 | – | inconclusive: 0.731 µM [rising, full curve]
S=c1[nH]nc(-c2ccccn2)n1/N=C/c1cccc2ccccc12 | inactive | –
C=CCc1ccc(OCC(O)CO)c(OC)c1 (centres undefined) | – | inconclusive: 7.31 µM [falling, partial curve, poor fit]
CN(C)c1ccnc(Oc2ccccc2)c1C#N | inconclusive: -11.9% | –
COc1ccccc1/C=N/NC(=O)c1sc(C)nc1C | inconclusive: -18.3% | –
Nc1ncnc(Sc2ccccc2)c1[N+](=O)[O-] | inconclusive: -16.4% | –
CC(=O)Nc1ccc(S(=O)(=O)Nc2nc(C)nc3sc4c(c23)CCC4)cc1 | inconclusive: -2.42% | –
Cn1ccnc1C(=O)c1cc(SCC(=O)N2CCOCC2)nc2ccccc12 | inconclusive: -0.247% | –
Clc1ccc2c(N/N=C/c3ccccc3Br)ccnc2c1 | inactive | –
CC1=NN(C(N)=S)C(=O)C1N=Nc1c(Br)cc(Br)cc1Br (centres undefined) | inactive | –

Part of the list above in a different format:

| SMILES | activity change, negative = inhibition | Potency |
| --- | --- | --- |
| O=C(CNC(=O)c1cccc(N2C(=O)c3ccccc3C2=O)c1)Nc1ccc(F)c(F)c1 | inconclusive: -2.48% | – |
| CC(=O)Nc1ccc(S(=O)(=O)Nc2nc(C)nc3sc4c(c23)CCC4)cc1 | inconclusive: -2.42% | – |
| CC1=NN(C(N)=S)C(=O)C1N=Nc1c(Br)cc(Br)cc1Br (centres undefined) | inactive | – |

(cont.)

SMILES | activity change, negative = inhibition | Potency
O=C(Nc1ccc(S(=O)(=O)N2CCOCC2)cc1)c1ccc2ncsc2c1 | – | inconclusive: 20 µM [falling, partial curve]
COc1ccc(OC)c2sc(NC(=O)C3CC3)nc12 | – | inconclusive: 1.16 µM [rising, full curve, poor fit]
CCCN(CC(=O)Nc1ccccc1C)C(=O)Cc1coc2cc(C)ccc12 | inconclusive: -12.4% | –
Cc1nc(N2CCOCC2)c2c(C)c(C(=O)Nc3ccc(F)cc3Cl)sc2n1 | inactive | –
CCOC(=O)c1sc(NC(=O)Nc2ccccc2Cl)cc1C | inconclusive: 6.12% | –
Oc1ccc(-c2nnc(SCC3CCCCC3)o2)cc1 | – | inconclusive: 12.6 µM [falling, partial curve, poor fit]
C=CCN1C(C(=O)c2ccccc2)=C(OC(=O)COc2ccccc2)c2ccccc2S1(=O)=O | inactive | –
CSCCC(=O)Nc1nc(-c2ccccn2)cs1 | inconclusive: 2.99% | –
Cc1ccc(NC(=O)CN2C(=O)S/C(=C/c3ccc(-c4cc(C(=O)O)ccc4C)o3)C2=O)cc1C | inconclusive: 16.2% | –
COc1cccc(CN2CCN(C3CCN(c4ccccc4F)CC3)CC2CCO)c1 (centres undefined) | inactive | –
CCSc1nnc(NC(=O)c2ccco2)s1 | – | inconclusive: 18.4 µM [falling, partial curve]
O=C(COC(=O)CC1CC2CCC1C2)NC(=O)NCc1ccco1 (centres undefined) | inactive | –
Cc1cccn2c(=O)c(/C=C(\C#N)S(=O)(=O)c3ccccc3)c(N3CCCCC3)nc12 | – | inconclusive: 5.62 µM [rising, partial curve]
CCOc1ccc(OCCn2c(SCC(=O)O)nc3ccccc32)cc1 | inconclusive: 6.39% | –
CS(=O)(=O)Nc1ccc(N2CCCCC2)c(Cl)c1 | inconclusive: 4.63% | –
O=C(Nc1nccs1)c1cncc(Br)c1 | inconclusive: 16.5% | –
COc1ccc2c(c1)CCc1sc(NC(=O)c3ccc(Br)cc3)nc1-2 | – | inconclusive: 8.91 µM [rising, partial curve, poor fit]
O=C(NCc1ccccc1)N1CCN(c2ccccc2F)CC1 | inconclusive: 7.91% | –
C[C@@H](c1ncncc1F)[C@](O)(Cn1cncn1)c1ccc(F)cc1F | – | inconclusive: 0.794 µM [falling, partial curve, poor fit]
NNC(=O)c1cc2sccc2s1 | – | active: 17.8 µM
Cc1cc(C(=O)N/N=C/c2cc(Br)c(Br)o2)n[nH]1 | – | inconclusive: 35.5 µM [falling, single point]
CCc1nn(CCCC(=O)NCc2ccc(C)cc2)c(=O)c2cc3occc3n12 | inconclusive: 9.48% | –
Cc1ccc(COc2ccc(/C=N/O)cc2)cc1 | inconclusive: 2.26% | –
COc1cc(C(C)=O)ccc1OCC(=O)c1cc(C)n(C2CC2)c1C | inconclusive: -8.46% | –
O=C(CN1N=C(C(F)(F)F)CC1(O)c1ccc([N+](=O)[O-])cc1)c1ccccc1 (centres undefined) | inactive | –
O=C(Nc1cccnc1)c1c(F)cccc1F | inconclusive: 3.83% | –
CCCCOc1cccc(C(=O)Nc2ccc(N3CCN(CC)CC3)cc2)c1 | inconclusive: 14.5% | –
